Taken from: PubChem BioAssay AID602196 (INSERM, 2012)
Here is a random part of about 23,000 reagents. 455 of them (2%) count as active. 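Active includes both protection and sensitisation; some change values fall well beyond the stated -50 to +50 range.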 Not all columns of the deposit are shown. Not stated in the record: the amount of reagent.

Aim: 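Genes whose knock-down alters cisplatin killing of lung cancer cells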
System: human A549 lung cancer cells
Knock-down reagent: siRNA pair against human genes
Time to read-out: 48 h transfection before cisplatin; time from cisplatin to read-out not stated
Conditions: cisplatin at a dose killing half of control-siRNA cells; exact dose and duration not given
Detection: 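Shift in cisplatin death relative to control siRNA, from -50 (all cells die) to +50 (no cells die); siRNAs harmful on their own scored 0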
Scale: two-siRNA summed score (-2 to +2): higher = both siRNAs protect from cisplatin killing; -2 means both sensitise; mean protection from cisplatin (shift in death) and protection from cisplatin (shift in death), siRNA C: higher = protection from cisplatin killing
Rule for the call: 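Each siRNA scores 0 if harmful alone by LDH or WST-1, otherwise +1 if it reduces and -1 if it increases cisplatin killing; a gene is active when both siRNAs agree (sum +2 or -2)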
Calls: active = both siRNAs shift cisplatin killing the same way; inactive = no consistent shift, or siRNA harmful alone

gene knocked down	two-siRNA summed score (-2 to +2)	mean protection from cisplatin (shift in death) (%)	protection from cisplatin (shift in death), siRNA C (%)	outcome
AMY1A (GeneID 276)	1	21.8	21.1	inactive
SRGAP1 (GeneID 57522)	-1	-6.3	5.6	inactive
CA6 (GeneID 765)	0	-1.5	2.4	inactive
EIF3D (GeneID 8664)	0	-3.5	-6	inactive
SCT (GeneID 6343)	0	-2.9	2.7	inactive
UCN2 (GeneID 90226)	1	16.2	9.7	inactive
TP63 (GeneID 8626)	0	8.4	11.7	inactive
LOC441297	1	8.4	15.3	inactive
GSG1L (GeneID 146395)	0	7	2.2	inactive
SGSM1 (GeneID 129049)	0	12.3	15.3	inactive

A run of entries from the list above:
gene knocked down	two-siRNA summed score (-2 to +2)	mean protection from cisplatin (shift in death) (%)	protection from cisplatin (shift in death), siRNA C (%)	outcome
LOC441297	1	8.4	15.3	inactive
GSG1L (GeneID 146395)	0	7	2.2	inactive
SGSM1 (GeneID 129049)	0	12.3	15.3	inactive

The listing continues:
gene knocked down	two-siRNA summed score (-2 to +2)	mean protection from cisplatin (shift in death) (%)	protection from cisplatin (shift in death), siRNA C (%)	outcome
LOC389846	0	15.2	24.4	inactive
TEAD2 (GeneID 8463)	0	-4.1	-10	inactive
LOC340171	-1	-3.6	-13.6	inactive
MYCBP (GeneID 26292)	-1	-7.7	9.4	inactive
ZDHHC19 (GeneID 131540)	0	0.7	-1	inactive
APOA1 (GeneID 335)	-1	-23.5	-12.2	inactive
CTNNB1 (GeneID 1499)	-1	-1.2	10.1	inactive
LINC00239 (GeneID 145200)	0	3.3	-2.6	inactive
ZNF629 (GeneID 23361)	0	4.4	5.8	inactive
PCDH18 (GeneID 54510)	0	-14.7	-13.6	inactive
KLHL31 (GeneID 401265)	0	8.5	10.5	inactive
LINC01538 (GeneID 400654)	0	2.5	-6.8	inactive
MCF2L2 (GeneID 23101)	0	5.2	16	inactive
